Test [1] concerns the target T1, Myc-tagged RhoGDIα expressed in HEK293T cells (not stated (human or mouse cDNA cloned)) (UniProt P52565).
T1 sequence: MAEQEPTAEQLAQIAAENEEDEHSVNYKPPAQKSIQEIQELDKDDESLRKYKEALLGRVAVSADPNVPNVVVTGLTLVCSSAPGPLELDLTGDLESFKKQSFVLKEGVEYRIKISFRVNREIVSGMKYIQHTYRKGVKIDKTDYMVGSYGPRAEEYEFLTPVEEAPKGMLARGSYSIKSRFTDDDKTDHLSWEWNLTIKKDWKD
As to the kind of experiment: co-IP; HEK293T cells expressing Myc-RhoGDIα alone or with Flag-tagged wild-type or mutant human FRMD7, 48 h; Myc-RhoGDIα precipitated with anti-Myc antibody bound to protein A/G-Sepharose; blots for Rac1, Cdc42, RhoA and Flag.

The chains behind the UniProt entries cited, without tags or fusion partners. Where a name states a change or a piece, a line headed by the entry shows the natural chain unless it says otherwise.
UniProt P60953: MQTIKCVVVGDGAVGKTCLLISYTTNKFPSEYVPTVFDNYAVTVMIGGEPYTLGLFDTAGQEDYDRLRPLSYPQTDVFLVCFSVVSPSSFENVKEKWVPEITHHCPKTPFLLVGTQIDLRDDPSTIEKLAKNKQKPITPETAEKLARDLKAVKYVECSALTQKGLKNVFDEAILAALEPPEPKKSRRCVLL
UniProt P60766: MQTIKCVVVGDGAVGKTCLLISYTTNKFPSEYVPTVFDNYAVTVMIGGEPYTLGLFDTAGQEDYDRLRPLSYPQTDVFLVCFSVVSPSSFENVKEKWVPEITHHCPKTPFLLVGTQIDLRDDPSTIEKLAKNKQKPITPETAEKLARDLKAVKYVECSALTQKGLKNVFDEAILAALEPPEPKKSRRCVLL
UniProt P61586: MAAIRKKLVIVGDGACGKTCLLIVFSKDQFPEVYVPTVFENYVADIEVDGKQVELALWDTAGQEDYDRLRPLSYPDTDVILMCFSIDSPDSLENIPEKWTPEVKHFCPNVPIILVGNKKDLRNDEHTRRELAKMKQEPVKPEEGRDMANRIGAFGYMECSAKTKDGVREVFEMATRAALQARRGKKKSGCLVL
UniProt Q9QUI0: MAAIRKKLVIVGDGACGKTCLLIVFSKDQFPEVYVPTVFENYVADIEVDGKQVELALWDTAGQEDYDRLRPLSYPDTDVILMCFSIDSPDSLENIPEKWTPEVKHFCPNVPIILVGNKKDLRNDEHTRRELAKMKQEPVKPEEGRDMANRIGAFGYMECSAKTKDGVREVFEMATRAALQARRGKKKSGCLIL

Test [2] has as its target T2, Myc-tagged mouse RhoGDIα (mouse) (UniProt Q99PT1).
T2 sequence: T1 sequence with V71I, G74R, S81T, V162M, S176N, D201E
As to the kind of experiment: co-IP; Neuro-2a cells expressing Myc-RhoGDIα with or without Flag-full-length FRMD7; Myc-RhoGDIα precipitated with 3 µg anti-Myc antibody bound to protein A/G-Sepharose; blots for Rac1, Cdc42, RhoA and Flag.

Where a chain is given by its changes, count along the chain named. These are yes or no findings as the source states them, for the method shown. Binding seen in cells or lysates may run through a third protein. Binding calls can cover weak binding; strength is not graded here. Tags and fused reporters may be left off the sequences shown.

As for “endogenous Cdc42 (HEK293T) (from UniProt P60953)”, the binding entry in test [1] is given as “binds”.

With “endogenous Cdc42 (Neuro-2a) (from UniProt P60766)”, the binding result in test [2] was “binds”. With “endogenous RhoA (HEK293T) (from UniProt P61586)”, the binding entry in test [1] is “binds”. Regarding “endogenous RhoA (Neuro-2a) (from UniProt Q9QUI0)”, the binding entry in test [2] is “binds”.

For the origin of these results see article PMC3742540.
